Article PMC5024446
No constants are given. Whether binding was seen depends on the method and setting. In cells and extracts the contact can be indirect. Some binding calls cover weakened binding; strength is not graded here.

By UniProt entry, the sequences of proteins in these tests, tags left out. Where a name states a change or a piece, a line headed by the entry shows the natural chain unless it says otherwise. Chains listed by the source or under a name are the forms on record and can include a tag or linker. Residues count along the entry.
tetherin deletion mutant delGPI (1-161 aa of human tetherin) (Q10589, residues 1-161): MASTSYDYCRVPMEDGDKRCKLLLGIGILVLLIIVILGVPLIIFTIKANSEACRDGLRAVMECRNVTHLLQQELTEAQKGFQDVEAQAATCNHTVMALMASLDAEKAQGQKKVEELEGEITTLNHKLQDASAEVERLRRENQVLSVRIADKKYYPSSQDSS
tetherin deletion mutant delCC (human tetherin with the deletion of 100-154 aa) (Q10589, form named): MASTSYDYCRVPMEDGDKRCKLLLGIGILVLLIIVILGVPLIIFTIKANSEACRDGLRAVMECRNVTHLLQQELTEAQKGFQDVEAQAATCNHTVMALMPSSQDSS
UniProt Q69467, residues 26-393: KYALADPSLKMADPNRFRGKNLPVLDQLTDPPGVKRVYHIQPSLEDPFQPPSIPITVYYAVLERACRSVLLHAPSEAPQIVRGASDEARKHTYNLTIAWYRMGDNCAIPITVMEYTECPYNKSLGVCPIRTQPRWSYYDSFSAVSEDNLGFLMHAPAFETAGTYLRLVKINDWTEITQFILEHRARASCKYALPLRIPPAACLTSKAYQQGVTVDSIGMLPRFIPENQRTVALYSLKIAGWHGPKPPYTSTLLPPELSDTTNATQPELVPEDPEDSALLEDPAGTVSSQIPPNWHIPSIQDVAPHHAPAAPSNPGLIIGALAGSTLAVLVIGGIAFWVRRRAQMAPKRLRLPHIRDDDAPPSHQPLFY

Assays:
[1] = molecular target: tetherin deletion mutant delGPI (1-161 aa of human tetherin) (human) (UniProt Q10589); test: co-IP; 293T cells cotransfected with gD-flag and a tetherin mutant; lysates precipitated with the rabbit polyclonal antibody against tetherin, western blot with the flag antibody; Pierce Crosslink Immunoprecipitation Kit
[2] = molecular target: HSV-2 glycoprotein D fused to flag tag (HSV-2) (UniProt Q69467); test: co-IP; 293T cells cotransfected with gD-flag and a tetherin mutant; precleared lysates precipitated with anti-flag antibody (isotype control antibody beside it), western blot for tetherin; Pierce Crosslink Immunoprecipitation Kit

Row | Substance | binding [1] | binding [2]
1 | HSV-2 glycoprotein D fused to flag tag (from UniProt Q69467 26-393) | binds | 
2 | tetherin deletion mutant delCC (human tetherin with the deletion of 100-154 aa) (from UniProt Q10589 1-161) |  | no binding
3 | tetherin deletion mutant delGPI (1-161 aa of human tetherin) (from UniProt Q10589 1-161) (domain or fragment) |  | binds
